The values that follow come from PMC6739875.

This experiment deals with T1, FLAG-tagged EEN (EIN6 ENHANCER), in vitro translated (A. thaliana) (UniProt Q8RWS0).
T1 sequence: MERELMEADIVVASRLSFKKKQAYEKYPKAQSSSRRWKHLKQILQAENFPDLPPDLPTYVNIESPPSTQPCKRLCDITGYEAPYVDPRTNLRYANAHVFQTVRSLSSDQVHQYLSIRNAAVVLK
As to the kind of experiment: pull-down; in vitro translated FLAG-EEN bound to Anti-FLAG M2 Magnetic Beads for 1 hr and washed with WP buffer (50 mM Tris HCl pH 7.5, 100 mM NaCl, 1 mM EDTA, 1% DMSO, 2 mM TCEP, 0.1% NP-40), then incubated 2 hr with in vitro translated Halo-ARP5; three washes; immunoblot with anti-FLAG and anti-Halo; only the target purified.

No constants are given. Whether binding was seen depends on the method and setting. Binding seen in cells or lysates may run through a third protein. Some results given as binding are weak or reduced against the parent protein; the word gives no strength. Where a sequence is shown, tags or fusion partners need not be part of it.

B1: Halo-tagged ARP5 (ACTIN-RELATED PROTEIN5), in vitro translated (protein, UniProt Q940Z2 1-724)
chain: MAFVSRIRRQSDYNTYPSSIPIVIDNGASYFRIGWAGETEPRVVFRNIVQRPRHKATGETVTIVGDLDPSMMKYFDCTRSGPRSPFDSNVVYQFEIMEYILDYAFDRLGANGSGIDHPILITECACNPVQSRSKMAELLFETYGVPAVAFGVDAAFSYKYNQLHGICKKDGIVLCPGFTTTHSIPFVDGEPIYKGSSRTNIGGYHVTDYLKQLLSLKYPFHSSRFTWEKAEDLKLEHCYIAPDYASEIRLFQEGRKEAEEKTSYWQLPWIPPPTEVPPSEEEIARKAAIREKQGQRLREMAEAKRVSKINDMENQLISLRFLLKQVDQVEEDDIPTFLSDTGYASRQELESTITKVTQSLRKARGEPKNEPAEYEENPDSLNNEKYPLMNVPDDILTPEQLKDKKRQMFLKTTAEGRLRARQKRNEEELEKEKRNQLEEERRRENPESYLEELQAQYKEVLERVEQKKRLKTNGSSNGNNKSGGIGRGERLSAAQRERMRLLTTAAFDRGKGEDTFGSRDEDWQLYKLMSKDNDDDDEQPDSDEAELARLSSRLQEIDPTFVQKVEGELSQTSGEVPRVRPLTEEDYKIVIGIERFRCPEILFHPNLIGIDQVGLDEMAGTSIRRLPHDEKELEERLTSSILMTGGCSLLPGMNERLECGIRMIRPCGSPINVVRAMDPVLDAWRGASAFAANLNFLGNAFTKMDYDEKGEDWLRNYQIRYNYL
As to B1, the binding result is reported as “binds”.
